Experimental data taken from publication PMC4447969.
These are yes or no findings as the source states them, for the method shown. Binding seen in cells or lysates may run through a third protein. Some entries that bind do so weakly or less than the wild type. For some assays here: Sequences can lack the tags named with a protein.

How the values were obtained:
[1] = target: T1, endogenous IBtkα (human (endogenous in HeLa and HEK293T)) (UniProt Q9P2D0); assay: co-IP; untransfected HEK293T cells treated for 4 h with MG132 (20 μM) or vehicle; lysates immunoprecipitated with anti-IBtk or IgG antibodies, Western blot
T1 sequence: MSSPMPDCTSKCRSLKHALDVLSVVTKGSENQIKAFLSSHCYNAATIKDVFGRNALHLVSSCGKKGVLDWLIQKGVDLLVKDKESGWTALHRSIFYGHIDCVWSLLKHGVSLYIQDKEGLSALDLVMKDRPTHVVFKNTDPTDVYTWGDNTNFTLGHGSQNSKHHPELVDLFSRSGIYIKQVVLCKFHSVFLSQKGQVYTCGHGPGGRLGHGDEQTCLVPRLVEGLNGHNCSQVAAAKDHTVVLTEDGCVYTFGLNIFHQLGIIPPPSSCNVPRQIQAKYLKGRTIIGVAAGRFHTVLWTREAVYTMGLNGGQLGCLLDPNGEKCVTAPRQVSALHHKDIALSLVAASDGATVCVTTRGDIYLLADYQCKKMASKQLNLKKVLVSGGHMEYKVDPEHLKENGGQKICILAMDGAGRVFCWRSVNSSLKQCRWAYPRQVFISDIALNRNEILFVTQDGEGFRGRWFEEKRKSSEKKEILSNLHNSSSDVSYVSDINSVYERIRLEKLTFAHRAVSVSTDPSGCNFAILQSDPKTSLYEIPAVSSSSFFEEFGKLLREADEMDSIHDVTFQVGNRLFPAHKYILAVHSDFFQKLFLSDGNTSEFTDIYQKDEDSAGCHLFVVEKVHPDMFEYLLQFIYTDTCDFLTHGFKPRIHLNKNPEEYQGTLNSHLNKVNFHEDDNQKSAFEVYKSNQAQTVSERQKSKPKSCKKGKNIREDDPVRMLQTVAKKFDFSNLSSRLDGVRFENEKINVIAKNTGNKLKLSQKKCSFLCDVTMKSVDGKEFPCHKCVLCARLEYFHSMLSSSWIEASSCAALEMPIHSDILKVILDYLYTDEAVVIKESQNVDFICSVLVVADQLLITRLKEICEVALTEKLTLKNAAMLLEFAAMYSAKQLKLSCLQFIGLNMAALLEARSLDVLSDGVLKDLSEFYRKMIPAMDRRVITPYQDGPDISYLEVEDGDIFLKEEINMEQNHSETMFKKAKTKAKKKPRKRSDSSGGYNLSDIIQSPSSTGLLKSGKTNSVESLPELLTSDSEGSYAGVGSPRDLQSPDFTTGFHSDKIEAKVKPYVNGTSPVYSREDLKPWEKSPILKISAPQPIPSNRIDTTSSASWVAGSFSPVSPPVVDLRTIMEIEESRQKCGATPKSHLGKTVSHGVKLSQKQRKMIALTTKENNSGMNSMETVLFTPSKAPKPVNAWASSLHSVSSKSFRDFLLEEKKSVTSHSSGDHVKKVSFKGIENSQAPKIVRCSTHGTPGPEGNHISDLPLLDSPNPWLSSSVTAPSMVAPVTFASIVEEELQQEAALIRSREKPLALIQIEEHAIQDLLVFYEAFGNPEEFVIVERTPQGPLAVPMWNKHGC

[2] = target: T2, IBtkα-FLAG (human inhibitor of Bruton's tyrosine kinase isoform α, aa 1–1352) (human) (UniProt Q9P2D0); assay: co-IP; HEK293T cells transfected with the tagged proteins, 48 h; extracts (1 mg) in RIPA buffer (50 mM Tris-HCl pH 8.0, 150 mM NaCl, 1 mM EDTA, 1% Igepal, 0.5% sodium deoxycholate) immunoprecipitated overnight with anti-FLAG or anti-Cul3 antibody, protein G beads, Western blot
T2 sequence: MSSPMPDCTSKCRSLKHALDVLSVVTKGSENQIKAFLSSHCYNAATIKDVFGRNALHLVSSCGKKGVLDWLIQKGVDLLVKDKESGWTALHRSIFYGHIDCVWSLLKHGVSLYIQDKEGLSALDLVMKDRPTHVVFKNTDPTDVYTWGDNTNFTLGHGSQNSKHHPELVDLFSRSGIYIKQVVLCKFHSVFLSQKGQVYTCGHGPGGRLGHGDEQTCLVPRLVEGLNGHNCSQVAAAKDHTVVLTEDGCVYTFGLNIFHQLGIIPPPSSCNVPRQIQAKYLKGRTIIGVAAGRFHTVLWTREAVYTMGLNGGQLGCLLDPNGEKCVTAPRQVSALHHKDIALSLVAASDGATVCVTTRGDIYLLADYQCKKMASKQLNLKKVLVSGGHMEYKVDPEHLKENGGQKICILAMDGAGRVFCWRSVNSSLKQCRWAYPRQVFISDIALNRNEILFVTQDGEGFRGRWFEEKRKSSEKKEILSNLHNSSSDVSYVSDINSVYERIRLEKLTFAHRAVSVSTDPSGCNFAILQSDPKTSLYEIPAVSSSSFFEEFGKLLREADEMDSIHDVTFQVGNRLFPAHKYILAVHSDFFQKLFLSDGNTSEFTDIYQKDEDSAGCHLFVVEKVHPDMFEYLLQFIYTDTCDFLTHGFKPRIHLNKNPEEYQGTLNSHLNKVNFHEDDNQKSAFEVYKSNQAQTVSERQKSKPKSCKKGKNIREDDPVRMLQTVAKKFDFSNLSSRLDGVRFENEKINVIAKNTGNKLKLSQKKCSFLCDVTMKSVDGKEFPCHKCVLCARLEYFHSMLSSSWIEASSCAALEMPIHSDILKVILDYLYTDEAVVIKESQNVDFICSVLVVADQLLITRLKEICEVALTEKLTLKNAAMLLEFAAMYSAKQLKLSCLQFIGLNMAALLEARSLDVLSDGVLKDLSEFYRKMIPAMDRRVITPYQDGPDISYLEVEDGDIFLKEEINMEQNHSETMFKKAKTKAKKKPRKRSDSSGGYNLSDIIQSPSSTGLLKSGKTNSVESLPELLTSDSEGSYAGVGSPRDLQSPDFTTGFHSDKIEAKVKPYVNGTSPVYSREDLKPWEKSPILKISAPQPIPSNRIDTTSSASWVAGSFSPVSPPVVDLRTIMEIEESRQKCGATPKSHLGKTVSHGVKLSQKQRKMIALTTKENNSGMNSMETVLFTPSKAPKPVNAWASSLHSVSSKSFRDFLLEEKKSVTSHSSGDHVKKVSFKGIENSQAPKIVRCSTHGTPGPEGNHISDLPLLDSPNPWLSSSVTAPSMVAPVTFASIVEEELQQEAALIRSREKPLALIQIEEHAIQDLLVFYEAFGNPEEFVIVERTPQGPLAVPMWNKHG

B1: endogenous Pdcd4 (programmed cell death 4) (protein, UniProt Q53EL6 1-469)
chain: MDVENEQILNVNPADPDNLSDSLFSGDEENAGTEEIKNEINGNWISASSINEARINAKAKRRLRKNSSRDSGRGDSVSDSGSDALRSGLTVPTSPKGRLLDRRSRSGKGRGLPKKGGAGGKGVWGTPGQVYDVEEVDVKDPNYDDDQENCVYETVVLPLDERAFEKTLTPIIQEYFEHGDTNEVAEMLRDLNLGEMKSGVPVLAVSLALEGKASHREMTSKLLSDLCGTVMSTTDVEKSFDKLLKDLPELALDTPRAPQLVGQFIARAVGDGILCNTYIDSYKGTVDCVQARAALDKATVLLSMSKGGKRKDSVWGSGGGQQSVNHLVKEIDMLLKEYLLSGDISEAEHCLKELEVPHFHHELVYEAIIMVLESTGESTFKMILDLLKSLWKSSTITVDQMKRGYERIYNEIPDINLDVPHSYSVLERFVEECFQAGIISKQLRDLCPSRGRKRFVSEGDGGRLKPESY
Q: For B1, which binding [1] is on record?
A: The binding was “binds”.

Q: What about the binding [2] of the same binder?
A: The binding was “binds”.
